Data taken from paper doi:10.1101/220541.
These are yes or no findings as the source states them, for the method shown. Binding can be weak; no strength is given. Where a sequence is shown, tags or fusion partners need not be part of it. For some assays here: In cells and extracts the contact can be indirect.

Legend:
[1] = target: T1, CRWN1, fluorophore fusion for FRET-APB (Arabidopsis thaliana) (UniProt F4HRT5); assay: FRET or BRET
T1 sequence: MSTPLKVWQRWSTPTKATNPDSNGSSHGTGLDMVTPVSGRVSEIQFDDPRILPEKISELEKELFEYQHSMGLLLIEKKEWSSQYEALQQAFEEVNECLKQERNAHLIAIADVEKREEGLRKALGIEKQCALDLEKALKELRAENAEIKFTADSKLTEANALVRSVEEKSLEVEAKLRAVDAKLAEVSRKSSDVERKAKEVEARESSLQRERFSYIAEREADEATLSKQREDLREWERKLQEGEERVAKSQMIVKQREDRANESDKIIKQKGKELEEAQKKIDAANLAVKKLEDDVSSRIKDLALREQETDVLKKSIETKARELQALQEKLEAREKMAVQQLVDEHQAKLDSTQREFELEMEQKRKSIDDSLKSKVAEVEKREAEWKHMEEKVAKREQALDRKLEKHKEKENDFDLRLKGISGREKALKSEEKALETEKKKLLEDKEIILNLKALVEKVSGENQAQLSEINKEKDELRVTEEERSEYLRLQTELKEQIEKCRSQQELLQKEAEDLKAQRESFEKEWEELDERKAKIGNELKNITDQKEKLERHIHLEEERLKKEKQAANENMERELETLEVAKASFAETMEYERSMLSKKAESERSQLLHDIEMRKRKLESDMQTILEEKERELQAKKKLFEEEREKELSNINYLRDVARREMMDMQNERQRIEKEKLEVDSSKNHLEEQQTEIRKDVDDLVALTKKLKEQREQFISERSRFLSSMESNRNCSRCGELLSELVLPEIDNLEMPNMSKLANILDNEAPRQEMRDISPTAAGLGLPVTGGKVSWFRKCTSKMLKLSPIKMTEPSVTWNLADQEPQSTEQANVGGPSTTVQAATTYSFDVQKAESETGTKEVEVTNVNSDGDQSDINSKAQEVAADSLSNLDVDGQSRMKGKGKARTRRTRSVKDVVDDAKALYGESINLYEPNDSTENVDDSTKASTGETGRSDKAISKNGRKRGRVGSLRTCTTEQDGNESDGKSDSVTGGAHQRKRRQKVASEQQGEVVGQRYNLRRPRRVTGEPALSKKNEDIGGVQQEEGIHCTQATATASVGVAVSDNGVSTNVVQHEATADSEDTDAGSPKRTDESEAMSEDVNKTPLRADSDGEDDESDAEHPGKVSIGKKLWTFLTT

[2] = target: T2, full length CRWN1, Gal4 fusion for yeast two-hybrid (Arabidopsis thaliana) (UniProt F4HRT5); assay: two-hybrid
T2 sequence: T1 sequence

## C-terminal PWO1 fragment (634 - 769 aa), fluorophore fusion for FRET-APB (Arabidopsis thaliana) (domain or fragment)
[1]
  binding: binds

## C-terminal PWO1 fragment (634 - 769 aa), Gal4 fusion for yeast two-hybrid (Arabidopsis thaliana) (domain or fragment)
[2]
  binding: binds
